The results are deposited in PubChem (AID741; SRMLSC, 2007).

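Difference in dose-response slope between the compound's toxicity and its reversal of drug resistance in MRP-overexpressing cells; the cell line is not named here.
The test concentration is not given here.
The number is the slope of the toxicity curve minus the slope of the reversal curve, with no unit; a higher value means a more active compound.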

Common to all entries: measured here: slope difference tox minus reversal.
This is a side read-out of the assay, for part of the compounds, not drawn at random.

| SMILES | slope difference |
|---|---|
| `c1ccc(N2CCN(c3ccccc3)C2c2cccnc2)cc1` | 0.3724 |
| `c1cnc2ccc(C(c3nnnn3C3CCCC3)N3CCN(c4nc5ccccc5s4)CC3)cc2c1` (centres unmarked) | 2.302 |
| `COc1ccccc1Nc1nc(N)nc(CN2CCCCCC2)n1` | 0.3756 |
| `COC(=O)CSc1nnc2n(-c3ccc(OC)cc3)c(=O)c3c4c(sc3n12)CCCCC4` | 0.1863 |
| `Cc1cc(=O)oc2cc(OCc3ccc(S(=O)(=O)N4CCOCC4)cc3)ccc12` | 0.3755 |
| `Cc1ccc(NC(=O)N(Cc2ccc3c(c2)OCO3)Cc2cc3cc4c(cc3[nH]c2=O)OCCO4)cc1` | 2.617 |
| `COc1cc(C(=O)Nc2nc3ccccc3[nH]2)cc(OC)c1OC` | 0.6163 |
| `O=C(Oc1ccc(N(Cc2cccs2)C2=NS(=O)(=O)c3ccccc32)cc1)c1ccc(Cl)cc1` | 2.376 |
| `CCOC(=O)N1CCC(Nc2c(Nc3ccc(C)c(C)c3)c(=O)c2=O)CC1` | 2.179 |
| `CC1CN(c2nc3c(c(=O)n(Cc4ccc(Cl)cc4)c(=O)n3C)n2C)CC(C)O1` (centres unmarked) | 1.088 |
| `CS(=O)(=O)N1CCN(c2ccccc2NC(=O)c2cccs2)CC1` | 1.079 |
| `Cc1ccccc1Cn1c(CN2CCN(c3ccc(F)cc3)CC2)nc2c1c(=O)n(C)c(=O)n2C` | 0.7363 |
| `O=C(Cc1cccs1)N1CCCC(c2nc3c(nnn3Cc3cccc(Cl)c3)c(=O)[nH]2)C1` (centres unmarked) | 0.1522 |
| `COc1ccc2c(Cl)c(C(=O)NCCCn3ccnc3)sc2c1Cl` | 0.0734 |
| `CN1CCc2c(sc3c2c(=O)n(-c2ccc(Cl)cc2)c2nncn32)C1` | 1.087 |
| `Cn1nnnc1SCC(=O)Nc1nc(-c2ccccc2)c(-c2ccccc2)o1` | 0.1014 |
| `CC1CN(c2nc3c(c(=O)n(C)c(=O)n3C)n2Cc2c(F)cccc2Cl)CC(C)O1` (centres unmarked) | 1.272 |
| `COc1ccccc1C1C(C#N)=C(N)N(c2cccnc2)C2=C1C(=O)CC(C)(C)C2` (centres unmarked) | 1.202 |
| `Cc1ccccc1Cn1c(CN2CCc3ccccc3C2)nc2c1c(=O)n(C)c(=O)n2C` | 0.6095 |
| `Cc1nc(SCC(=O)Nc2c(C)nn(C)c2C)c2cnn(-c3ccccc3)c2n1` | 0.712 |
| `CCOC(=O)Nc1sc(C(=O)N(C)C)c(C)c1C(=O)OCC` | 0.6243 |
| `CCc1nnc(NC(=O)CSc2nnc(C3CCCCC3)n2-c2cccc(Cl)c2)s1` | 1.375 |
| `c1ccc(CN2CCN(CCCNc3ccc4nnc(-c5ccccc5)n4n3)CC2)cc1` | 2.233 |
| `CN1CCc2c(sc3c2c(=O)n(-c2ccccc2)c2nnc(SCc4ccc(Cl)cc4)n32)C1` | 1.879 |
| `Cc1ccc(C)c(N2CCN(C(=O)C3CCN(S(=O)(=O)c4cccc5nsnc45)CC3)CC2)c1` | 2.281 |
| `Cn1c(=O)c2c(nc(SCCCC#N)n2Cc2c(F)cccc2Cl)n(C)c1=O` | 1.229 |
| `Cc1ccc(OS(=O)(=O)c2ccccc2)c(/C=N/N=C2\NC(=O)C(C)S2)c1` (centres unmarked) | 0.0464 |
| `O/N=C/c1cn(-c2ccccc2)nc1-c1ccc2c(c1)OCCO2` | 1.549 |
| `NC(=O)c1ncn([C@@H]2O[C@H](CO)[C@@H](O)[C@H]2O)c1O` | 0.4982 |
| `CC1(C)Cc2c(C#N)c(SCCC#N)nc(N3CCOCC3)c2CS1` | 1.188 |
| `Cc1ccc(NC(=O)Cn2c(=O)n(Cc3ccco3)c(=N)c3c4c(sc32)COC(C)(C)C4)cc1` | 0.8852 |
| `CC(C)(C)c1ccc(C(=O)NNC(=O)Cc2cccc3ccccc23)cc1` | 0.3155 |
| `Cn1c(=O)c2c(nc(CN3CCN(c4ccccc4)CC3)n2Cc2c(F)cccc2Cl)n(C)c1=O` | 1.113 |
| `Cn1c(N2CCN(c3ccccn3)CC2)nc2c1c(=O)n(Cc1ccc(Cl)cc1)c(=O)n2C` | 0.7207 |
| `CCN1CCN(c2nc(-c3cccnc3)nc3ccccc23)CC1` | 0.6823 |
| `O=C(NCCc1ccccc1)c1cc(-c2ccco2)on1` | 0.7358 |
| `Cc1ccc(C(=O)CSc2nnc(COc3cccc(C)c3)o2)cc1` | 0.0655 |
| `CN1CCc2c(sc3c2c(=O)n(-c2ccccc2)c2nnc(SCc4ccc(F)cc4)n32)C1` | 1.56 |
| `CCOC(=O)c1cc2c(=O)n3ccccc3nc2n(CC2CCCO2)c1=NC(C)=O` (centres unmarked) | 0.3149 |
| `Cc1ccc(C)c(N2CCN(C(=O)c3cc4ccccn4n3)CC2)c1` | 1.098 |
| `COc1ccc(OC)c(NC(=O)CSc2nc3ccccc3c(=O)n2CCNC(C)=O)c1` | 1.58 |
| `O=C(c1ccc(CS(=O)(=O)c2ccc(Br)cc2)o1)N1CCN(C2CCCCC2)CC1` | 1.293 |
| `CCOC(=O)Cn1cnc2sc3c(c2c1=O)CCC3` | 1.808 |
| `Cc1c(Cl)cccc1Nc1ccccc1C(=O)O` | 0.5144 |
| `Cc1cc(NC(=O)CCC(=O)N(c2ccccc2)C(C(=O)NC2CCCCC2)c2cccs2)no1` (centres unmarked) | 0.2538 |
| `CC1CN(c2nc3c(c(=O)[nH]c(=O)n3C)n2Cc2ccccc2F)CC(C)O1` (centres unmarked) | 0.9353 |
| `CSC1=NP(=S)(SC)N(C)c2nc3n(c21)CCC3` (centres unmarked) | 0.2714 |
| `Cc1cc(NC(=O)C2=C(O)c3ccccc3S(=O)(=O)N2C)no1` | 1.407 |
| `Cc1ccc(C(=O)Nc2ccccc2N2CCN(C(=O)C(C)C)CC2)cc1` | 1.072 |
| `CCOC(=O)c1nnn(CC(=O)N2N=C(c3ccc(Cl)cc3)CC2c2ccc(OC)cc2)c1C(=O)OCC` (centres unmarked) | 1.108 |
| `O=C(OCCN(C1=NS(=O)(=O)c2ccccc21)c1ccc(Cl)cc1)c1ccco1` | 1.046 |
| `Nc1ccc(-n2nncc2-c2ccco2)cc1` | 0.2897 |
| `O=C(O)c1cccnc1Nc1cccc(C(F)(F)F)c1` | 0.2553 |
| `O=C1N2CN(C(c3ccccc3)c3ccccc3)CN=C2SC1(CO)CO` | 0.4294 |
| `CC1CCc2c(nc3ncnn3c2N2CCN(c3ccccc3)CC2)C1` (centres unmarked) | 0.7193 |
| `Cc1ccc(N2CCN(c3ccc(C)cc3)C2c2ccncc2)cc1` | 2.235 |
| `Cc1ccc(Cl)cc1N1CCN(C(=O)CCC(=O)O)CC1` | 0.1809 |
| `Cc1ccc(S(=O)(=O)Oc2ccc(C)cc2/C=N/N=C2\NC(=O)C(C)S2)cc1` (centres unmarked) | 0.5924 |
| `CCC(Oc1ccccc1)C(=O)Nc1ccc(S(=O)(=O)N2CCOCC2)cc1` (centres unmarked) | 0.3764 |
| `Cn1c(=O)c(NCCc2ccccc2)c2c3c(cccc31)C(=O)c1ccccc1-2` | 0.6225 |
| `Nc1ccc(S(=O)(=O)c2ccc(N)cc2)cc1` | 2.027 |
| `CCOc1cccc(C(=O)Nc2ccccc2N2CCN(C(=O)C(C)C)CC2)c1` | 0.8726 |
| `C=C(C)Cn1c(N2CCC(Cc3ccccc3)CC2)nc2c1c(=O)[nH]c(=O)n2C` | 0.2122 |
| `CSc1nnc2c3c4c(sc3c(=O)n(-c3ccccc3)n12)CC(C)(C)OC4` | 2.124 |
| `CCOC(=O)c1cc2c(=O)n3ccccc3nc2n(CCOC)c1=NC(=O)c1ccncc1` | 2.273 |
| `Cn1c(=O)n(Cc2ccccc2)c(=O)c2c1nc(NCC1CCCO1)n2Cc1ccccc1` (centres unmarked) | 0.6835 |
| `Cc1cc(-c2ccco2)n(-c2ccccc2)n1` | 0.0402 |
| `COc1ccc2c(c1)c(CC(=O)OCC(=O)O)c(C)n2C(=O)c1ccc(Cl)cc1` | 1.575 |
| `c1ccc(-n2ncc3c(N4CCN(CCOc5cccc6ccccc56)CC4)ncnc32)cc1` | 0.7473 |
| `Cc1ccccc1N=C(NOCc1ccccc1)c1nonc1N` | 0.1623 |
| `COc1ccccc1Nc1nc(N)nc(CN(C)C2CCCCC2)n1` | 1.456 |

The first 6 entries again:

{"smiles": "c1ccc(N2CCN(c3ccccc3)C2c2cccnc2)cc1", "slope difference": "0.3724"}
{"smiles": "c1cnc2ccc(C(c3nnnn3C3CCCC3)N3CCN(c4nc5ccccc5s4)CC3)cc2c1", "stereo": "centres unmarked", "slope difference": "2.302"}
{"smiles": "COc1ccccc1Nc1nc(N)nc(CN2CCCCCC2)n1", "slope difference": "0.3756"}
{"smiles": "COC(=O)CSc1nnc2n(-c3ccc(OC)cc3)c(=O)c3c4c(sc3n12)CCCCC4", "slope difference": "0.1863"}
{"smiles": "Cc1cc(=O)oc2cc(OCc3ccc(S(=O)(=O)N4CCOCC4)cc3)ccc12", "slope difference": "0.3755"}
{"smiles": "Cc1ccc(NC(=O)N(Cc2ccc3c(c2)OCO3)Cc2cc3cc4c(cc3[nH]c2=O)OCCO4)cc1", "slope difference": "2.617"}